Laboratory results: PubChem BioAssay AID504784 (Drosophila RNAi Screening Center, 2011)
The deposit covers about 17,000 reagents; shown is an unselected part of those with a known target gene and a result. 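Each column is one replicate's B-score; the combined score over replicates was not deposited, so single values may mislead.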 A plus sign joins genes that one reagent is predicted to hit. Further read-outs or replicates are left out here.

Test: 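Fly genes whose silencing alters how much lipid cells keep in droplets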 (primary screen)
Cells: Drosophila Kc167 embryonic cells
Knock-down reagent: long dsRNA against Drosophila genes, about 250 ng dsRNA per well
Time to read-out: 4 days
Treatment: cells fed 400 µM oleic acid bound to BSA
Detection: 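Cells imaged and segmented; ratio of lipid droplet area to nuclear area, log-transformed, then normalised as a B-score over the screen; higher means more stored lipid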
Reading the numbers: droplet/nuclear area B-score: higher = more stored lipid (overstorage)

| predicted target | DRSC id | droplet/nuclear area B-score, replicate 1 | droplet/nuclear area B-score, replicate 2 |
| --- | --- | --- | --- |
| CG14395 | DRSC14852 | 0.325 | 0.466 |
| CG31371 | DRSC15079 | 0.255 | -0.954 |
| TwdlM | DRSC15810 | -0.718 | 0.648 |
| Actn3 | DRSC14106 | -0.0272 | -0.00648 |
| vnc + CG42455 | DRSC09867 | 2.62 | – |
| tpr | DRSC04468 | -0.383 | -0.699 |
| CG7156 | DRSC16207 | 0.622 | -0.897 |
| Reg-2 | DRSC08690 | -0.403 | 0.374 |
| Hel25E | DRSC03342 | -2.88 | 0.383 |
| CG32669 | DRSC18864 | 2.25 | 1.41 |
| CG6154 | DRSC15977 | 0.119 | -0.721 |
| CG9902 | DRSC20212 | 0.646 | 0.966 |
| CG31872 | DRSC02568 | -0.798 | 0.0711 |
| CG31872 | DRSC02572 | -0.964 | -1.17 |
| Sxl + CG14425 (retired record) | DRSC18721 | -0.283 | 0.682 |
| Sxl + CG14425 (retired record) | DRSC18722 | -0.724 | 1.29 |
| Sxl + CG14425 (retired record) | DRSC21490 | 1.44 | -0.00611 |
| haf | DRSC00381 | 1.19 | 0.43 |
| DCTN4-p62 | DRSC06101 | -0.774 | -4.58 |
| Lcp65Ab2 + Lcp65Ab1 | DRSC10340 | 0.00864 | -0.847 |
| Lcp65Ab2 + Lcp65Ab1 | DRSC10343 | 0.659 | 0.18 |
| Unr | DRSC10761 | -1.43 | -2.26 |
| CG31680 | DRSC21878 | 5.82 | 0.693 |
| Nepl16 | DRSC14650 | -0.134 | -0.41 |
| CheB42b | DRSC22878 | -1.01 | 0.633 |
| CG30472 | DRSC22245 | -1.13 | 0.29 |
| Sclp | DRSC19851 | -2.82 | -0.249 |
| beta4GalNAcTA | DRSC05944 | 0.129 | 0.251 |
| NO66 | DRSC18252 | -0.943 | – |
| pnt | DRSC17028 | 2.04 | 1.87 |
| pnt | DRSC23204 | -3.99 | -2.15 |
| Sugb | DRSC10815 | 0.161 | -0.759 |
| Mettl14 | DRSC03073 | 4.97 | -2.03 |
| pix | DRSC10533 | 1.35 | 2.07 |
| Naa20B | DRSC21442 | 1.41 | 0.204 |
| et | DRSC19582 | -1.31 | 0.34 |
| Rexo5 | DRSC10981 | 0.916 | -0.381 |
| Got1 | DRSC07177 | -0.531 | 0.00434 |
| CG30161 | DRSC22141 | 0.626 | 1.01 |
| Pdss2 | DRSC11625 | -0.0732 | 3.13 |
| wam | DRSC15171 | 1.97 | 1.24 |
| CSN5 | DRSC16592 | -0.582 | 0.887 |
| CSN5 | DRSC22381 | 1.28 | -1.53 |
| Tsp42Ek | DRSC06187 | 0.571 | 2.15 |
| Duba | DRSC10582 | 0.461 | -2.21 |
| Rab8 | DRSC11261 | 0.297 | -1.03 |
| VhaM9.7-a | DRSC08289 | 1.06 | -1.09 |
| Rpn9 | DRSC16840 | 0.619 | -0.309 |
| ACXD | DRSC07843 | -1.49 | -0.576 |
| CG7276 | DRSC10797 | 0.00373 | 1.83 |
| Cbp53E | DRSC07356 | 0.791 | -3.56 |
| Kaz-m1 | DRSC16990 | -0.518 | 0.099 |
| CG13160 | DRSC06284 | 0.607 | 1.61 |
| sala | DRSC03605 | -1.88 | -1.42 |
| CG30050 | DRSC05342 | -0.482 | 0.908 |
| GC | DRSC08396 | 0.426 | -0.933 |
| Btk | DRSC02008 | -0.0383 | 0.000552 |
| Btk | DRSC02666 | -0.951 | -0.24 |
| Btk | DRSC22427 | -0.104 | -1.35 |
| SppL | DRSC15228 | -0.481 | 1.31 |
| CG13488 | DRSC04133 | 1.94 | 0.248 |
| Ankle2 | DRSC20105 | -1.04 | 0.541 |
| Ankle2 | DRSC20106 | 0.433 | 0.946 |
| alpha-Spec | DRSC08704 | 0.236 | -0.372 |
| Mtr4 | DRSC03560 | -0.562 | -0.692 |
| CG5746 | DRSC15868 | 0.817 | -0.411 |
| sti | DRSC09739 | 2.79 | 1.97 |
| sti | DRSC09740 | 2.07 | 1.71 |
| CG14817 | DRSC18547 | -0.0378 | 1.9 |
| SMC3 | DRSC20227 | 0.00481 | -0.0628 |
| Sec61alpha | DRSC03256 | 0.108 | 1.38 |
| CG31826 | DRSC03357 | 0.416 | 1.69 |
| CG10481 | DRSC02063 | -1.62 | 1.3 |
| CG14232 | DRSC19588 | 3.16 | -1.19 |
| Dbx | DRSC08270 | -0.49 | 0.667 |
| Dbx | DRSC08271 | 0.0873 | -0.0505 |
| Dbx | DRSC08394 | 1.51 | 0.49 |
| CG15712 | DRSC06583 | -0.0307 | -0.184 |
| Gpxl | DRSC06538 | 3.1 | 0.121 |
| Ppi1 | DRSC15421 | 0.688 | – |
| CG17287 | DRSC06659 | -0.906 | 0.644 |
| Slip1 | DRSC17146 | 0.322 | -0.00339 |
| Sirt4 | DRSC18290 | 1.79 | 0.0365 |
